Earlier results in patent US20240173315A1 (OWP Pharmaceuticals, Inc., priority 2022, published 2024).

Target: T1, α1A receptors (Homo sapiens, UniProt P35348)
T1 sequence (P35348 1-466): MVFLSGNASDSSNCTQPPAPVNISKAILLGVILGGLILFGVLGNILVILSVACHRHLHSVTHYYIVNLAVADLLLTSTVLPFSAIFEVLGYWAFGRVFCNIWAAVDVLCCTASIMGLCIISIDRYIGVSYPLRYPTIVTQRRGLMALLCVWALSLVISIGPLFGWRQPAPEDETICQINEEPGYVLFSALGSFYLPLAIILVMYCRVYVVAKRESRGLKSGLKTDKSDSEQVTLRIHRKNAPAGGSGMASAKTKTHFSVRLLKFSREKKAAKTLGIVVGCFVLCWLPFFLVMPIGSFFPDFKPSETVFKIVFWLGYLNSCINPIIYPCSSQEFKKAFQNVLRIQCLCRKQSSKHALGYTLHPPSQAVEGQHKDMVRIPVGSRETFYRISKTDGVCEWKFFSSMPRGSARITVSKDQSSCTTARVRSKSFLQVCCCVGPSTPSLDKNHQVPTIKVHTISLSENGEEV
Settings: read-out: Ki, antagonist at α1A

- Ki: 153 nM
Structure (SMILES): O=c1n(CCCN2CCN(c3cccc(Cl)c3)CC2)nc2ccccn12 [trazodone, 2-{3-[4-(3-chlorophenyl)piperazin-1-yl]propyl}[1,2,4]triazolo[4,3-a]pyridin-3(2H)-one]
